Assay results: patent publication US8211924B2, “1-(azolin-2-yl)amino-1,2-diphenylethane compounds for combating animal pests” (BASF SE, priority 2007, dated 2012)
Some results were stated once for a whole list of compounds, not compound by compound. At least one compound was matched to its structure with a doubt left.

Tests used:
[1] = system: Green Peach Aphid (Myzus persicae); type: in vivo; details: 300 ppm; pepper leaves dipped; determined after 5 days
Protocol: (§1) Pepper plants in the 2nd leaf-pair stage (variety ‘California Wonder’) are infested with approximately 40 laboratory-reared aphids by placing infested leaf sections on top of the test plants. The leaf sections are removed after 24 hours. The leaves of the intact plants are dipped into gradient solutions of the test compound. Aphid mortality on the treated plants, relative to mortality on check plants, is determined after 5 days.

[2] = system: Cotton aphid (Aphis gossypi); type: in vivo; details: 300 ppm; cotton cotyledons dipped; determined after 5 days
Protocol: as §1, with “Cotton” for “Pepper”, “cotyledon” for “2nd leaf-pair”, “‘Delta Pine’)” for “‘California Wonder’)”, “100” for “40”, “cotyledons” for “leaves”

| Compound | mortality in comparison with untreated controls [1] | mortality in comparison with untreated controls [2] |
| --- | --- | --- |
| CSC(=O)N1CCSC1=NC(Cc1cccc(Cl)c1)c1ccccc1 (centres unmarked) [Example 7] | over 70% |  |
| Cc1ccc(S(=O)(=O)N2CCSC2=NC(Cc2cc(C)cc(C)c2)c2cccc(C(F)(F)F)c2C)cc1 (centres unmarked) [Example 18] | over 70% | over 70% |
| C=CCOC(=O)N1CCSC1=NC(Cc1cccc(Cl)c1)c1ccccc1 (centres unmarked) [Example 6] | over 70% | over 70% |
